The values below come from PMC10163288.

B1: il2ra_site2_2erj_normal_mot_HHH_b2_01204_af2_000000056_0001_19_34_H_._HHH_b2_03231_af2_0001_0000300024_0000001_1 (protein)
chain: SSSSSELEERVRELLEEAREAYEEGDLEEVYRLAVEALHLVSENNDQELQEEIAEFLEELSSSSS
B2: il2ra_site2_3nfp_sap_15_mot_HHH_b2_02049_000000004_0001_42_55_H_._HHH_b2_01829_0001_0000100025_0000001_0_0001 (protein)
chain: SSSSDEEHERLWELAKEAFELLEEGNPEEAEEVLEEARELAERLDDEVALRAIEELRKLLNSSSS
B3: il2ra_site2_3nfp_sap_15_mot_HHH_b1_07089_af2_000000257_0001_1_17_H_._51cc31007119fa75359d0ea3f4aa2c22_0001_1_0001_0000100009_0000001_0_0001 (protein)
chain: SSSSSAAEDSVHVLKRELEELGDRESIEELERLLEEIKEHNDPRLLLELYALLLRLYEESSSSSS
B4: il2ra_site2_2erj_normal_mot_HHH_b1_04514_af2_000000117_0001_22_39_H_._HHH_b1_05426_0001_0000600015_0000001_0 (protein)
chain: SSSSTAEESVEELARLLRELREEGDPDQVRALAELAERYFERQGDEEAVELLREVLERLLSSSSS
B5: il2ra_site1_2b5i_normal_mot_3116615af0ee64d731c1c85d8523bf51_0001_000000216_0001_15_32_H_._HHH_b1_06770_af2_0001_0000200020_0000001_0_af2pred_dldesign_0_af2pred (protein)
chain: SSSSSDIEAKTEAALAKARELYEAGKRREALELLEKLYKELSALGREDLQDRVYKLALELSSSSS
B6: il2ra_site1_2b5i_normal_mot_HHH_b1_02271_000000068_0001_1_16_H_._HHH_b1_08334_0001_0000300016_0000001_0_af2pred_dldesign_0_af2pred (protein)
chain: SSSSSSRREKLLRIEELLKEAAKLEDLEEREKLLDEALELAKEAKDPFAVKAVEEAREELSSSSS
B7: il2ra_site1_3nfp_sap_10_mot_1dfc56a8f07a39e834a69883c800ee5d_0001_1_af2_000000099_0001_1_15_H_._HEEHE_0460_0001_0000300003_0000001_1_0001 (protein)
chain: SSSSDREEAIKVAEKILRAAWEGDREEARELLEELKEIAEKSNDPRLERLTEKLEKAIEWSSSSS
B8: il2ra_site1_3nfp_normal_mot_HHH_b2_03678_af2_000000278_0001_41_55_H_._31bff7180b20e3ed47766ceefd9934be_0001_af2_0001_0000300034_0000001_0_af2pred_0001_af2pred (protein)
chain: DEEKELAELIKKAVEKNDPELLEEVLRELLEELGNPREAAKLFHELLKKAGLDPREILEALRLVT
B9: il2ra_site1_2b5i_sap_11_mot_HHH_b1_06833_000000178_0001_1_19_H_._HHH_b1_07977_0001_0000700012_0000001_0_0001_af2pred_dldesign_0_af2pred (protein)
chain: SSSSSSAAKEARRLFLEANRLFQAGKEEEAKEALEKALELAKKAKANSLLRLVENALKLLSSSSS
B10: il2ra_site1_3nfp_normal_mot_7cbdf275c6f204f9d60ac8802deb44b6_0001_1_000000034_0001_19_33_H_._HHH_b1_00879_0001_0000300012_0000001_0 (protein)
chain: SSSSTADEFLEELVKEAFEEGDRLQLRALIKLLEHALKALGDPTAKELLEEAQELLERLRSSSSS
B11: il2ra_site2_2erj_sap_16_mot_HHH_b2_05639_000000107_0001_40_54_H_._HHH_b1_02005_0001_0000100002_0000001_0_0001_af2pred_0001_af2pred (protein)
chain: SSSSDERELAELLARISRAAAEGDEEEVRELVEELRKLAEELNDEEAERAVEVLEEHLRGSSSSS
B12: il2ra_site2_2erj_normal_mot_HHH_b1_02466_000000018_0001_22_38_H_._HHH_b1_07558_0001_0000100002_0000001_0 (protein)
chain: SSSSSEVEQLAEAVLEVAEANNDEELVRRLEELLEQLEEEGDHRYAWEMLELLLELRERLSSSSS
B13: il2ra_site1_3nfp_sap_16_mot_HHH_b1_04049_af2_000000244_0001_42_55_H_._HHH_b2_06744_0001_0000100003_0000001_0_0001_af2pred_0001_af2pred_swapped (protein)
chain: SLEERIEEILKKYLPPVEVRVLIRMVKEVVEKHNIPPEEAIKLLIEAMRRNDERLAEILEEALEE
B14: il2ra_site2_2erj_sap_24_mot_720936397f2d31669eff21710c18a4fc_0001_000000071_0001_37_51_H_._HHH_b2_07963_af2_0001_0000200006_0000001_0_0001 (protein)
chain: SSSSDEEERVIELLAQAVELANNGNPEEARKAIEEAEEIARELGDEFLERYIEFALRDIESSSSS
B15: il2ra_site1_2b5i_sap_13_mot_HHH_b1_06900_af2_000000048_0001_21_36_H_._d91d1db0bf1296298019f2f5d1450a22_0001_1_0001_0000300013_0000001_0_0001_af2pred_dldesign_0_ … (protein)
chain: SSSSSDKRKFASDLVDELTEKYGLDAEQENALIRLATELIWQGLSPEEIRERLEALAERLSSSSS
B16: il2ra_site2_2erj_sap_31_mot_13e88f01115c899cb62c0719bb565eb2_0001_000000092_0001_36_50_H_._a6dc95095f26d3d149f38d2607f81e7c_0001_0001_0000900026_0000001_0_0001_ … (protein)
chain: SSSSDEEELERLLREIEEAVERGDEELYARLVRELFRLIRELGDEEAASLLIRLAEEFAEGSSSS
B17: il2ra_site1_1z92_normal_mot_1581cc1c700002558836ca695aafbf97_0001_1_af2_000000099_0001_17_32_H_._393f259bee1ff5c7c1c94a75254b9d8d_0001_0001_0000300037_0000001_1 (protein)
chain: DVERFIEFLERKGRVSPEQIAKSLAAFVRLAERKSPEAAEAFERDLEELSKTDPIAELALELLRR
B18: il2ra_site2_3nfp_normal_mot_HHH_b1_02297_000000279_0001_41_58_H_._HHH_b2_01197_0001_0000500018_0000001_0 (protein)
chain: SSSSDEEEYERRVEELLEEAEKISDEREVERLLSEAALLAYEARDFELFALVNEVLARLVSSSSS
B19: il2ra_site2_2erj_normal_mot_HHH_b2_03093_af2_000000119_0001_18_34_H_._HHH_b1_06904_af2_0001_0000100005_0000001_0 (protein)
chain: SSSSSEEEARELIEEAKELIENGNPEKAWEVLRRAAEIAWREGNFELFSEIAELLHELARSSSSS

The other results are listed elsewhere or left out.

The target of the assay is il2ra, P01589. Put plainly: yeast display titration.
For B1, the “apparent Kd” value was “inactive: no binding seen”.
Under B2 stands “inactive: no binding seen”; under B3, “inactive: no binding seen”.
Under B4 stands “inactive: no binding seen”; under B5, “inactive: no binding seen”; under B6, “inactive: no binding seen”.
In the case of B7, the “apparent Kd” value was “inactive: no binding seen”.
Next, B8: “inactive: no binding seen”; B9: “inactive: no binding seen”; B10: “inactive: no binding seen”.
Under B11 stands “inactive: no binding seen”; under B12, “inactive: no binding seen”.
With B13, the “apparent Kd” value was “inactive: no binding seen”.
Next, B14: “inactive: no binding seen”.
On to B15, for which the “apparent Kd” value is “inactive: no binding seen”.
Consider B16, for which the “apparent Kd” value is “inactive: no binding seen”.
With B17, the “apparent Kd” value is “inactive: no binding seen”.
As for B18, the “apparent Kd” value is “inactive: no binding seen”.
Regarding B19, the “apparent Kd” value is “inactive: no binding seen”.
